Experimental data: PubChem BioAssay AID1259308 (NCATS, 2017)

Assay: 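Genes whose loss raises luciferase production in HEK293 cells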 (primary screen)
Cell system: human HEK293 embryonic kidney cells stably expressing firefly luciferase (HEK-CMV-Luc2-Hygro)
Knock-down reagent: single siRNA against human genes, 0.8 pmol siRNA per well
Timing: 72 h
Detection: 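Reporter luminescence and viable-cell signal on separate replicate plates, given as percent of non-targeting control and median/MAD z-scores, plus per-cell luciferase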
Reading the numbers: total luciferase, z-score: higher = more reporter protein produced
Active means: 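An siRNA counts as active if its total luciferase robust z-score exceeds 3; genes with two or more such siRNAs out of three were retested with fresh siRNAs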
Meaning of the calls: active = raised luciferase; inactive = no rise
The whole screen tested about 59,000 reagents; below is an unselected part. Over the whole deposit, about 1,510 (2.6%) are marked active. 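Calls use total luciferase alone and ignore viability, so some active siRNAs may act by altering cell number.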 Reagents against one gene are numbered here. Not all columns of the deposit are shown. Reagent sequences are not shown.

LPO #1 scored total luciferase, z-score 0.298; inactive. After knock-down of LPO #2, the record shows total luciferase, z-score -1.4; inactive. With knock-down of LPO #3 the results were total luciferase, z-score 1.73; inactive. GALNT16 #1 scored total luciferase, z-score 0.636; inactive. GALNT16 #2 showed total luciferase, z-score -1.74; inactive. With knock-down of GALNT16 #3 the results were total luciferase, z-score 1.43; inactive.

After knock-down of USP19 #1, the record shows total luciferase, z-score 0.325; inactive. USP19 #2 gave total luciferase, z-score 0.623; inactive. For USP19 #3, the entry reads total luciferase, z-score 0.779; inactive. CIAO1 #1 gave total luciferase, z-score 0.557; inactive. For CIAO1 #2 the deposit lists total luciferase, z-score -0.576; inactive. Against CIAO1 #3, the entry reads total luciferase, z-score 0.274; inactive.

With knock-down of AKAP8 #1, the screen gave total luciferase, z-score -1.19; inactive. After knock-down of AKAP8 #2, the screen gave total luciferase, z-score 0.116; inactive. Against AKAP8 #3, the values are total luciferase, z-score -0.76; inactive. Against SP110 #1 the deposit lists total luciferase, z-score -0.218; inactive. SP110 #2 gave total luciferase, z-score 0.381; inactive. Depletion of SP110 #3 gave: total luciferase, z-score -0.00513; inactive.

For ADRA1A #1 the deposit lists total luciferase, z-score 0.42; inactive. With knock-down of ADRA1A #2 the results were total luciferase, z-score -0.435; inactive. ADRA1A #3 gave total luciferase, z-score 0.416; inactive.

3 entries already listed, ordered by “total luciferase, z-score”, ascending.
ADRA1A #2 → total luciferase, z-score: -0.435; activity call: inactive
SP110 #3 → total luciferase, z-score: -0.00513; activity call: inactive
ADRA1A #1 → total luciferase, z-score: 0.42; activity call: inactive
